Experimental data from patent publication US20180161300A1, “CITRIN INHIBITORS FOR THE TREATMENT OF CANCER” (Yeda Research And Development Co. Ltd., priority 2015, published 2018).
At least one compound was matched to its structure with a doubt left.

Columns and labels:
[1] = system: U2OS human osteosarcoma cell-line transduced with shASS1; experiment: Crystal violet proliferation, arginine deprivation combined with drug treatments; type: cell-based
Description: Cells were seeded in 12-well plates at 70,000 cells/well in a triplicate. Time 0 was calculated as the time the cells became adherent, which was after about 6 hours from plating. For each time point, cells were washed with PBS X1 and fixed in 4% PFA (in PBS). Cells were then stained with 0.1% Crystal Violet (Catalog #: C0775, Sigma-Aldrich) for 20 minutes (1 ml per well) and washed with water. Cells were then incubated with 10% acetic acid for 20 minutes with shaking. Extract was then diluted 1:4 in water and absorbance was measured at 590 nm every 24 hours.
U2OS human osteosarcoma cell-line was seeded in 6-well plates at 80,000 cells/well. The following day, cells were treated with either 100 nM Rapamycin (#R0395, Sigma-Aldrich) or with 10 μM 5FU (#F6627, Sigma-Aldrich) in regular medium, with 10% dialyzed FCS-arginine-free-RPMI (Catalogue No. 06-1104-34-1A, Biological Industries, Kibbutz beit-haemek, Israel), or with both arginine depleted medium and one of these drugs. Rapamycin and 5FU were renewed into the medium every day, whereas fresh arginine-free medium was supplemented twice a week.

[2] = system: CAD; experiment: Immunoblot of CAD phosphorylation/activation; type: cell-based, human; details: ASS1 deficient cells, Rapamycin treatment

In the case of `CO[C@H]1C[C@@H]2CC[C@@H](C)[C@@](O)(O2)C(=O)C(=O)N2CCCC[C@H]2C(=O)O[C@H]([C@H](C)C[C@@H]2CC[C@@H](O)[C@H](OC)C2)CC(=O)[C@H](C)/C=C(\C)[C@@H](O)[C@@H](OC)C(=O)[C@H](C)C[C@H](C)/C=C/C=C/C=C/1C` [Rapamycin], the “proliferation, drug together with arginine depleted medium” value ([1]; U2OS shASS1, arginine depleted medium plus 100 nM Rapamycin or 10 μM 5FU) is reported as “significant additive beneficial effect of decreased proliferation”, the “proliferation, isolated drug treatment” value ([1]; U2OS shASS1, complete medium, 100 nM Rapamycin or 10 μM 5FU) is reported as “decrease in proliferation” and the CAD activation [2] is reported as “decreased CAD activation”.
